Assay results reported in paper PMC5472784, “Pyrazinamide and derivatives block ethylene biosynthesis by inhibiting ACC oxidase” (Nature Communications, 2017).
No constants are given. Whether binding was seen depends on the method and setting.

Sequences of proteins named here, by UniProt entry; tags and fusion partners are left off. Residues count along the entry.
UniProt Q41931, residues 1-303: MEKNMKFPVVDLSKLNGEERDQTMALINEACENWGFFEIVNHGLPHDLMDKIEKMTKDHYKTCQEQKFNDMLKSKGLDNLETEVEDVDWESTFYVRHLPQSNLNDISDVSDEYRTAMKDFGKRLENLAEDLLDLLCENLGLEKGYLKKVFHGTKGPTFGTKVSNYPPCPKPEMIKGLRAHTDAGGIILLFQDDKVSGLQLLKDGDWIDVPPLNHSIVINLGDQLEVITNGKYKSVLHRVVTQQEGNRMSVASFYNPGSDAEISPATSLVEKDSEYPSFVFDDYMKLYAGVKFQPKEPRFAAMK

Molecular target: Arabidopsis ACC oxidase 2 (AtACO2^1-303) (Arabidopsis thaliana) (UniProt Q41931)
Assay: SEC; gel filtration analyses of AtACO2 in solution (Supplementary Fig. 14); both purified

- binding: no binding
Substance: Arabidopsis ACC oxidase 2 (AtACO2^1-303) (from UniProt Q41931 1-303) (enzyme)
